The record followed here is patent US20220195054A1 (BERGEN TEKNOLOGIOVERF RING, published 2022).

Sequences of proteins named here, by UniProt entry; tags and fusion partners are left off. A change or cut given only in a name is not applied to a line headed by its entry. A line that says so, or that is headed by a name, gives the form on record, which may keep a tag or linker.
Rhesus Axl-Fc (G7NLI7, form named): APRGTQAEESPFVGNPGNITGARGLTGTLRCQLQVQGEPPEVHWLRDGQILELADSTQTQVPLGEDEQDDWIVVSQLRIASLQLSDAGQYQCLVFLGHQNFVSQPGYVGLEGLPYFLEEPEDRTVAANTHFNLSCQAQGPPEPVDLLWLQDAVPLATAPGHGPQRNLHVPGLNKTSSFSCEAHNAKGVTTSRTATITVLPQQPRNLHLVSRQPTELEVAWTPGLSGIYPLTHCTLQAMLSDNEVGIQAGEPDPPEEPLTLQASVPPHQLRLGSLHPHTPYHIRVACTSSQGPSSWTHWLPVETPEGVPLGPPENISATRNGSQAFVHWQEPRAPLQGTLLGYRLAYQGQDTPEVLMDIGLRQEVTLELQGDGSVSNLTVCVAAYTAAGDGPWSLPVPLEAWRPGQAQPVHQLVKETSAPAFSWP

No constants are given. Whether binding was seen depends on the method and setting. Some binding calls cover weakened binding; strength is not graded here.

This test deals with Rhesus Axl-Fc (rhesus) (UniProt G7NLI7). In words: SPR (Biacore), Rhe-Axl-Fc immobilised (350.2 RU), antibody 25 µg/mL. (In general: Surface plasmon resonance follows binding to a sensor surface in real time, without labels.)

B1: chimeric monoclonal antibody 10G5 (mouse variable/human constant IgG1) (antibody, V domains shown)
VH: QVQLQQSGAELVRPGASVKLSCKASGYSFTDFYINWVRQRPGQGLEWIARIFPGGDNTYYNEKFKGKATLTAEESSSTAYIQLSSLTSEDSAVYFCARRGLYYAMDYWGQGISVTVSS
VL: DVLMTQTPLSLPVSLGDQASISCRSSQSLVHSNGIPYLHWYLQKPGQSPKLLIYRVSNRFSGVPDRFSGSGSGTDFTLKISRVEAEDLGVYFCSQGTHVPPTFGGGTKLEIK
notes: also called c10G5; C10G5
Regarding B1, the binding result is recorded as “binds”.

B2: humanised 10G5 antibody H2L1 (antibody, human IgG1, kappa, V domains shown)
VH: EVQLVESGGGLVQPGGSLRLSCAASGYSFTDFYINWVRQAPGKGLEWVARIFPGGDNTYYNEKFKGRFTLSADTSKSTAYLQMNSLRAEDTAVYYCARRGLYYAMDYWGQGTLVTVSS
VL: DIQMTQSPSSLSASVGDRVTITCRSSQSLVHSNGIPYLHWYQQKPGKAPKLLIYRVSNRFSGVPSRFSGSGSGTDFTLTISSLQPEDFATYYCSQGTHVPPTFGQGTKVEIKR
notes: H2L1 is read as GH2 heavy chain + GL1 light chain; also called hu10G5 H2L1; Hu10G5 (H2L1)
In the case of B2, the binding result was “binds”.

B3: humanised 10G5 antibody H2L1, second preparation (H2L1-prep2) (antibody, human IgG1, kappa, V domains shown)
VH: B2 VH
VL: B2 VL
For the molecule B3, the binding result is “binds”.
